No constants are given. Whether binding was seen depends on the method and setting. Some entries that bind do so weakly or less than the wild type.
Assays:
beta amyloid = beta amyloid (UniProt P05067); assay: protein pin array ELISA, A450
[1] = target: Equine Alcohol dehydrogenase (equine) (UniProt P00327); assay: protein pin array ELISA, A450, ADH as the ligand
[2] = target: Equine Alcohol dehydrogenase (equine) (UniProt P00327); assay: protein pin array ELISA, A450; listed as peak peptide with unheated and pre-heated target
[3] = target: Equine Alcohol dehydrogenase (equine) (UniProt P00327); assay: protein pin array

Chains of the proteins cited; added tags and fusions are not shown. Residues count along the entry.
UniProt P05067, residues 672-713: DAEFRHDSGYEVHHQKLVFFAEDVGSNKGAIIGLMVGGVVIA
UniProt P00327, residues 2-375: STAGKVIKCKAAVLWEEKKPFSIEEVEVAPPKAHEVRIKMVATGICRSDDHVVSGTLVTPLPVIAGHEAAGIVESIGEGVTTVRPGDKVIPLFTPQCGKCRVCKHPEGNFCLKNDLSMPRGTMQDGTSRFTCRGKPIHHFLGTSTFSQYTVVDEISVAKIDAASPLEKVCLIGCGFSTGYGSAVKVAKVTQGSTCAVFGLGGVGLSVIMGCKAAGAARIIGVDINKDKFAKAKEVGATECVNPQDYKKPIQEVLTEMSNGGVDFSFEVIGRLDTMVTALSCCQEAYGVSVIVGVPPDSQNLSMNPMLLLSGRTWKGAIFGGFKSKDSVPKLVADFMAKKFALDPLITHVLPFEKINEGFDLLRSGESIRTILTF

binding (beta amyloid)	binding [1]	binding [2]	binding [3]	Binder
binds				LTVNGPRK
binds				SFLRAPSW
	binds	binds		SREFHRKY
binds	binds	binds		RTIPITRE
binds				SPFYLRPP
binds	binds	binds	binds	GVLTVNGP
binds	binds	binds		WIRRPFFP
binds				FYLRPPSF
	binds	binds		LRPPSFLR
binds	binds	binds		LFPTSTSL
binds	binds	binds		SLSPFYLR
binds				FHSPSRLF
binds	binds	binds		PFFPFHSP
	binds	binds		FFGEHLLE
binds				FISREFHR
binds				LKVKVLGD
binds				KHEERQDE
binds				FPFHSPSR
binds				DQFFGEHL
binds	binds	binds	binds	FSVNLDVK
binds	binds	binds		RLEKDRFS
binds	binds	binds	binds	LTITSSLS
binds				HGFISREF
binds				KYRIPADV
